# Laboratory results: PubChem BioAssay AID1439 (NMMLSC, 2008)
# The chains behind the UniProt entries cited, without tags or fusion partners.
# UniProt P09471, whole entry, looked up: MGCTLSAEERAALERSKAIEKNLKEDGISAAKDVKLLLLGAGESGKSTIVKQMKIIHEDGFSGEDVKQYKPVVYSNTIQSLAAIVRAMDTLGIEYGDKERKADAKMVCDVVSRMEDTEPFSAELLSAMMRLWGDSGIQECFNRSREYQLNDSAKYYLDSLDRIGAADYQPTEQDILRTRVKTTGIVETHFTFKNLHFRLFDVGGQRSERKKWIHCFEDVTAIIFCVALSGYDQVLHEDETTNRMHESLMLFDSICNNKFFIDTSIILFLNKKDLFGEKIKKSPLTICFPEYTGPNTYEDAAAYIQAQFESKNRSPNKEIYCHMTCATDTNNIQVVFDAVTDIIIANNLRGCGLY
# Screen size: about 220,000 compounds; about 770 (0.35%) were called active. The inconclusive results got no clear call from the source; some entries with a clear call stand among them for comparison. Rule as the data show it: active = binding response below about 49% or above about 150%; inconclusive = no clear call, values can overlap the other calls; inactive = in between.
# Molecular target: Guanine nucleotide-binding protein G(o) subunit alpha (Homo sapiens) (UniProt P09471)
# Assay: RGS7-Galphao binding modulators, primary screen, biochemical, multiplexed bead flow cytometry (AID 1439);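 also: fluorescent Galphao held in activated GDP-AlF4 state binding bead-coupled RGS7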
# Settings: at 10 µM, actives lie on both sides
row,SMILES,binding response (% of control)
1,Cc1ccccc1OS(=O)(=O)c1cn(C)c(=O)n(C)c1=O,inconclusive: 105%
2,O=C(CN1CCN(c2ccccn2)CC1)Nc1ccc(OCc2ccccc2)cc1,inactive: 120%
3,O=C(NNS(=O)(=O)c1ccc(F)cc1)c1ccc(S(=O)(=O)N2CCCCC2)cc1,inactive: 101%
4,CC(C)N(C(=S)NC1CCCCC1)c1ccccc1,inactive: 99.9%
5,N#CC(=C=[N-])c1nc2ccccc2nc1-[n+]1cccc(NC(=O)c2ccc(F)cc2)c1,inconclusive: 119%
6,Cc1nn2c(NCCOCCO)c3c(nc2c1-c1ccccc1)CCC3,inconclusive: 116%
7,COc1ccc(CNC(=O)c2cc(-c3cc(C)ccc3O)n[nH]2)cc1,inconclusive: 103%
8,CN(C)S(=O)(=O)c1ccc(Cl)c(NC(=O)COC(=O)c2ccc3c(c2)NC(=O)CS3)c1,inconclusive: 37.1%
9,O=C(CN1C(=O)CNC1=O)Nc1ccc(Cl)cc1,inconclusive: 25.4%
10,O=C(Nc1ccccc1)Nc1ccccc1C(=O)NCCCN1CCOCC1,inconclusive: 141%
11,COc1ccc(S(=O)(=O)NCc2ccco2)cc1N(C)S(=O)(=O)c1ccccc1,inactive: 99.3%
12,COc1ccccc1NC(=O)C(=N\O)/C(C)=N/O,inactive: 98.7%
13,Cc1cc(O)c(C(C)C)cc1NC(=O)Cn1nc(C)c2ccccc2c1=O,inactive: 92.6%
14,CC(C)CC(NC(=O)C(CC(C)C)NC(=O)C(Cc1ccc(OCc2ccccc2)cc1)NC(=O)OC(C)(C)C)C(N)=O (configuration not stated),inactive: 101%
15,O=S(=O)(N/N=C/c1ccc(N2CCOCC2)cc1)c1ccccc1,inconclusive: 107%
16,CN(C)c1cc(-c2ccc(F)cc2)oc(=O)c1Cl,inconclusive: 81.6%
17,CC(Nc1nc(-c2ccccc2)nc2ccccc12)c1ccccc1 (configuration not stated),inconclusive: 130%
18,CCn1c(SCC(=O)NCc2ccccc2)nc2nc3c(cc2c1=O)CCCC3,inconclusive: 109%
19,CN1CCN(C(=O)/C=C/c2ccc([N+](=O)[O-])o2)CC1,inconclusive: 111%

row,SMILES,binding response (% of control)
1,O=C1CC(N2CCSCC2)C(=O)N1c1ccc(Br)cc1 (configuration not stated),inconclusive: 157%
2,CCOC(=O)c1c(C)oc2cc(Cl)c(O)c(CN(C)C)c12,inconclusive: 90.7%
3,CCN(CC(=O)N(CC(C)C)c1c(N)n(CC(C)C)c(=O)[nH]c1=O)Cc1nc2ccccc2c(=O)[nH]1,inconclusive: 87%
4,COC(=O)C1(C)Cc2cc(OC(C)=O)c(OC(C)=O)cc2N1 (configuration not stated),inconclusive: 104%
5,COc1ccc(N(CC(=O)N2CCC(Cc3ccccc3)CC2)S(C)(=O)=O)cc1,inactive: 102%
6,Cc1ccc(C(C)C)c(OCC(=O)NNC2=CC(=O)CC(C)(C)C2)c1,inconclusive: 85.7%
7,N#C/C(=C\c1cccnc1)c1ccc(Br)cc1,inconclusive: 85.4%
8,Cc1ccc(-c2nc3ncccc3o2)cc1NC(=S)NC(=O)c1ccco1,inconclusive: 94.7%
9,CC1(C)Cc2c(sc3nc(-c4ccccc4)oc(=O)c23)CO1,inactive: 93.1%
10,Cc1c(CCOC(=O)c2cc([N+](=O)[O-])ccc2Cl)sc[n+]1CCCCS(=O)(=O)[O-],inconclusive: 101%
11,CC(=O)C1=NN(c2ccc(Cl)cc2)C(c2ccc3c(c2)OCO3)N(C(C)=O)N1C (configuration not stated),inconclusive: 150%
12,Cc1ccc(NC(=O)CSc2nnc(CCC(=O)O)c(=O)[nH]2)cc1,inconclusive: 194%
13,COc1ccc2nc(C(F)(F)Cl)c(C#N)c(N)c2c1,inconclusive: 114%
14,C=CCOc1ccc(/C=C2\SC(=S)N(CCC(=O)O)C2=O)cc1,inconclusive: 53.2%
15,C=CCn1c(SCC(N)=O)nnc1-c1cnccn1,inconclusive: 91.8%
16,CCOC(=O)C(=O)Nc1ccccc1C(=O)NCc1ccccc1,inconclusive: 113%
17,O=C(NC1CCCC1)c1cccc(Oc2ccccc2)c1,inactive: 98.5%
18,C/C(=N\OCc1nc2ccccc2c(=O)n1/N=C/c1cc(C)cc([N+](=O)[O-])c1O)c1ccccc1,inconclusive: 127%
19,O=C1/C(=C/c2ccc(F)cc2)Oc2cc(OC(=O)N3CCOCC3)ccc21,inconclusive: 102%

row,SMILES,binding response (% of control)
1,CC(=O)N/N=C(\C)c1cccc(NC(=O)c2cccs2)c1,active: -112%
2,O=C(CCn1ccnc1)Nc1ccc2ccccc2c1,inconclusive: 110%
3,CCOC(=O)c1c(C)nn(-c2ncccc2NC(=O)CCC(=O)O)c1C,inconclusive: 110%
4,O=C(NCCN1CCN(Cc2ccccc2)CC1)C1c2ccccc2C(=O)N2CCc3ccccc3C12 (configuration not stated),inactive: 150%
5,O=C(NNC(=S)Nc1ccc(F)cc1)c1cccc([N+](=O)[O-])c1,inconclusive: 83.6%
6,O=C(NNC(=S)NC(=O)c1ccco1)c1ccc(F)cc1,inconclusive: 98.5%
7,COc1cccc(-c2nnc(-c3ccccc3[N+](=O)[O-])o2)c1,inconclusive: 120%
8,O=C(CSc1nc(-c2ccco2)cc(C(F)(F)F)n1)Nc1cccnc1,inactive: 124%
9,O=c1oc2ccccc2c(O)c1Cc1cc(Cl)c2cccnc2c1O,inconclusive: 141%
10,CS(=O)(=O)Oc1ccc2c(c1)O/C(=C\c1cccnc1)C2=O,inconclusive: 44.5%
11,CC(C)(C)c1cc(C(=O)NNC(=O)Nc2cccc(Cl)c2)n(Cc2ccccc2)n1,inconclusive: 226%
12,CN(C(=O)c1ccc(OC2CCN(CCc3ccccc3)CC2)cc1)C1CCCCC1,inactive: 103%
13,CCOC(=O)c1cc2cc(CC(=O)c3ccc(OCC)cc3O)ccc2o1,inactive: 102%
14,COCCn1c(SCC(=O)Nc2cc(OC)ccc2OC)nc2c(c1=O)SC(C)C2 (configuration not stated),inconclusive: 38.8%
15,CCOP(=O)(OCC)C(Nc1ccccc1)c1cccnc1 (configuration not stated),inconclusive: 74.5%
16,OC(COc1ccc(CN2CCCCO2)cc1)CN1CCCCC1 (configuration not stated),inactive: 95.4%
17,Cc1cc[n+](Cc2ccc([N+](=O)[O-])cc2)cc1,inconclusive: 108%
18,COc1ccccc1NC(=O)Cn1cnc2sc(C)c(S(=O)(=O)N3CCCCC3)c2c1=O,inactive: 102%
19,CCCCN(CCCC)S(=O)(=O)c1ccc(NC(=O)c2ccc([N+](=O)[O-])cc2Cl)cc1,inactive: 116%

# 3 entries already listed, sorted by heavy-atom count, falling:
row,SMILES,binding response (% of control)
3,CCN(CC(=O)N(CC(C)C)c1c(N)n(CC(C)C)c(=O)[nH]c1=O)Cc1nc2ccccc2c(=O)[nH]1,inconclusive: 87%
16,OC(COc1ccc(CN2CCCCO2)cc1)CN1CCCCC1 (configuration not stated),inactive: 95.4%
4,COC(=O)C1(C)Cc2cc(OC(C)=O)c(OC(C)=O)cc2N1 (configuration not stated),inconclusive: 104%
